Laboratory results as given in patent US20070128669A1, “Serum-free expansion of cells in culture” (Institute for Chemical Genomics, priority 2005, published 2007).
Results are given in words; binding and its absence hold for the method and conditions named. In cells and extracts the contact can be indirect. Some results given as binding are weak or reduced against the parent protein; the word gives no strength.

The chains behind the UniProt entries cited, without tags or fusion partners. Where a name states a change or a piece, a line headed by the entry shows the natural chain unless it says otherwise.
UniProt P35222: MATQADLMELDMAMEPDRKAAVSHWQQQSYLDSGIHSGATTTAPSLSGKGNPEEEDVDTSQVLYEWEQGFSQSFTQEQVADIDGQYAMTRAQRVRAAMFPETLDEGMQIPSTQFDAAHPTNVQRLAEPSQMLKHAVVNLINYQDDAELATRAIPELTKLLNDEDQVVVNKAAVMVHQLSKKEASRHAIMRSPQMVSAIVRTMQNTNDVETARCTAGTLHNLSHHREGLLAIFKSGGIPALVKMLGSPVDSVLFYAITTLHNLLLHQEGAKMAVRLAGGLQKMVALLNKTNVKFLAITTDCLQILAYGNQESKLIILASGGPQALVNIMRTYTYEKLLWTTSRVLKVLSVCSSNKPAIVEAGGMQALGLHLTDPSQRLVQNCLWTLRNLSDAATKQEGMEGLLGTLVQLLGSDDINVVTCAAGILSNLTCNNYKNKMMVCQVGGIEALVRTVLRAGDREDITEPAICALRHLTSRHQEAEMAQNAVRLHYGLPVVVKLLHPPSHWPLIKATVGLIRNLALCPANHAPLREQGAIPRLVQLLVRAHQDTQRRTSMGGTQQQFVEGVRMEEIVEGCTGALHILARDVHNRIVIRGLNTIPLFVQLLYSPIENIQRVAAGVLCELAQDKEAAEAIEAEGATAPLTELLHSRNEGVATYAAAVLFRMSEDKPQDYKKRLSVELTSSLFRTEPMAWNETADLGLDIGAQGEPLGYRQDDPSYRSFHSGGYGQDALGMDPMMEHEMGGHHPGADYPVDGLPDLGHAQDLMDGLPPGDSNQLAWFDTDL
UniProt Q09472: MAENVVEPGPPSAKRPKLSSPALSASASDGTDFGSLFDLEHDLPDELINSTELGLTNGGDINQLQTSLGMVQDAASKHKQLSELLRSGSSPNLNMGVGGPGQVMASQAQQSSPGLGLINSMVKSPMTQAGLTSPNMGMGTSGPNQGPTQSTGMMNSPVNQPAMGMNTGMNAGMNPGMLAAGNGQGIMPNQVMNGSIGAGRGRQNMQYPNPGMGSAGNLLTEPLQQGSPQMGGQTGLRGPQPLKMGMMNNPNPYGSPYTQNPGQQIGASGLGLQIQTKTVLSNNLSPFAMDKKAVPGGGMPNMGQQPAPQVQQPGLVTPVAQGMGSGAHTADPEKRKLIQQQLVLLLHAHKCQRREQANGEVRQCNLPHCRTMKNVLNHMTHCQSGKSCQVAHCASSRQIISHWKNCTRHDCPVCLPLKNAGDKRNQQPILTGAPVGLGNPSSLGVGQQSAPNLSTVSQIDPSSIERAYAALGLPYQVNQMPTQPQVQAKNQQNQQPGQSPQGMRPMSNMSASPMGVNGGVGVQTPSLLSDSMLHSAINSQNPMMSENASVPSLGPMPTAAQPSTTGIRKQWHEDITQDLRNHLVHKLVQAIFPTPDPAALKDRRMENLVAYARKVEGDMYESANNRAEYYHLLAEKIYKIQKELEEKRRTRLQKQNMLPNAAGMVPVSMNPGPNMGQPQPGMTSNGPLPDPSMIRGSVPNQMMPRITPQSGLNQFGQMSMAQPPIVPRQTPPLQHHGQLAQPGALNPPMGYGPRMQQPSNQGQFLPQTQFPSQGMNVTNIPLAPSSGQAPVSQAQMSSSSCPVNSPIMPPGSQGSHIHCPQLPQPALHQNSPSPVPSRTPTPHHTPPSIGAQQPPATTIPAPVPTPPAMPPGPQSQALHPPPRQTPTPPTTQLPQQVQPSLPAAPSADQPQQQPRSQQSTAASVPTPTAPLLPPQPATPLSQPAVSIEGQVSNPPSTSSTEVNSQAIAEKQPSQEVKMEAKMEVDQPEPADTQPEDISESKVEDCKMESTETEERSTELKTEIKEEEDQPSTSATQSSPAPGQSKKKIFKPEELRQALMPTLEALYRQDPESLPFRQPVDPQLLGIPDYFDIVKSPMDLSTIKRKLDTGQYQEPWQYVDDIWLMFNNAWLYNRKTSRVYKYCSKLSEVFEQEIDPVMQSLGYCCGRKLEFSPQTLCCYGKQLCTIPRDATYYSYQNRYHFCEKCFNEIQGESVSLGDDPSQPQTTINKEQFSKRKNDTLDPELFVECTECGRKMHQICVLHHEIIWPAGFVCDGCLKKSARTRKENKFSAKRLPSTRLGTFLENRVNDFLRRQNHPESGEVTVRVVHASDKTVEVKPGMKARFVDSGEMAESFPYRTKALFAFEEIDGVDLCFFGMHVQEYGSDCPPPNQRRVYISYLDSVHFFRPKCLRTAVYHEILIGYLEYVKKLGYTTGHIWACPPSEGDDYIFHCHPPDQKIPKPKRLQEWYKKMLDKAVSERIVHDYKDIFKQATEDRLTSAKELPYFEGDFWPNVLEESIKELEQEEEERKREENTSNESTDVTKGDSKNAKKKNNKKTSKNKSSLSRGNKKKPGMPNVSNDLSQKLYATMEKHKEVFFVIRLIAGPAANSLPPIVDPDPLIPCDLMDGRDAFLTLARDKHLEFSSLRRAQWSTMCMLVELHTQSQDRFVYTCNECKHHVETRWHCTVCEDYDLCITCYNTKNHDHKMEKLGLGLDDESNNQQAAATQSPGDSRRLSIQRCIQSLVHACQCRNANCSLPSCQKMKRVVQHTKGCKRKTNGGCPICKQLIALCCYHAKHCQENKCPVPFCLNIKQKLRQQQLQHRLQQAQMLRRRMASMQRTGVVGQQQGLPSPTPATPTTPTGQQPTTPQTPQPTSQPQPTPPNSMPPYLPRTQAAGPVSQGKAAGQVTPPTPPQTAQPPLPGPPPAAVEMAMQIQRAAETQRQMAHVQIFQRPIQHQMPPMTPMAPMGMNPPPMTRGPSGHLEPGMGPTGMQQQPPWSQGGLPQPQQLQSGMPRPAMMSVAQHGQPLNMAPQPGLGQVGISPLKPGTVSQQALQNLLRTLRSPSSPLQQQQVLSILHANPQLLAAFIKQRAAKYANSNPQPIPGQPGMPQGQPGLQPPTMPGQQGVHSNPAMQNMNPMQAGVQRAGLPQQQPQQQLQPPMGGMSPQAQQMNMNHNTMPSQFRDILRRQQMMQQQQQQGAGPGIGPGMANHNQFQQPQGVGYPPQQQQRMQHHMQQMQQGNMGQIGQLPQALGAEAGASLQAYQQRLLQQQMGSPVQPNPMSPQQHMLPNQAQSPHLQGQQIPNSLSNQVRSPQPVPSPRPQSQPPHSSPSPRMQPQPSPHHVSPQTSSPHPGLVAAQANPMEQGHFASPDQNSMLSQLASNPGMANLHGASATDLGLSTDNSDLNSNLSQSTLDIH

Tests used:
[1] = molecular target: β-catenin (Homo sapiens (Human)) (UniProt P35222); assay: co-immunoprecipitation from P19 lysates (summary of Example 6)
[2] = molecular target: β-catenin (Homo sapiens (Human)) (UniProt P35222); assay: co-immunoprecipitation of β-catenin/p300 complexes from P19 lysates after adding in vitro phosphorylated p300 (1-110aa)
[3] = molecular target: β-catenin (Homo sapiens (Human)) (UniProt P35222); assay: co-immunoprecipitation via HA-tag of in vitro phosphorylated p300 (1-110 aa) mixed with P19 lysates, western blot (FIG. 4C lane 2)
[4] = molecular target: β-catenin (Homo sapiens (Human)) (UniProt P35222); assay: co-immunoprecipitation via HA-tag of recombinant p300 (1-110 aa) mixed with P19 lysates, western blot (FIG. 4C)

| Substance | binding [1] | binding [2] | binding [3] | binding [4] |
| --- | --- | --- | --- | --- |
| PKCα phosphorylated p300 (1-110 aa) fused to an HA-tag (from UniProt Q09472 1-110) | binds | binds | binds | – |
| Recombinant p300 (1-110 aa) fused to an HA-tag (from UniProt Q09472 1-110) | – | – | – | binds |
